From PubChem BioAssay AID1487 (National Center for Advancing Translational Sciences (NCATS), 2009)
This is one part of the list. Further columns of the screen follow, without active or inactive calls. Compounds called inactive in the main read-out are mostly missing here. The note in brackets gives the kind of curve behind each potency; many fits are weak.

Assay: qHTS Assay for Modulators of Lamin A Splicing
Conditions: HeLa LMNA splicing GFP/RFP minigene ratio, 48 h
Outline: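 S3 HeLa stable clones carrying a lamin A-EGFP splicing minigene plus DsRed2 were seeded at 600 cells/well in Opti-MEM with 2% FBS, pin-dosed and incubated 48 h at 37°C. Acumen cytometry (488 nm) gave the GFP/RFP total-intensity ratio.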

[1] = measured here: GFP splicing reporter channel
[2] = measured here: RFP viability control channel

| Structure (SMILES) | AC50 [1] | AC50 [2] |
| --- | --- | --- |
| O=C1C=C(c2ccccc2)C[C@H](c2cccs2)[C@H]1n1nnc([N+](=O)[O-])n1 | 15.8 µM [falling, single point] |  |
| Cc1ccc(CNC(=O)C2(c3cccs3)CCOCC2)cc1 |  | 0.0158 µM [falling, full curve, poor fit] |
| CC1(C)CC[C@]2(C(=O)O)C(O)C[C@@]3(C)C(=CCC4[C@@]5(C)CCC(O)C(C)(C)C5CC[C@@]43C)C2C1 (some centres not stated) | 25.1 µM [rising, single point] |  |
| COc1ccc(CN(Cc2ccc(OC)cc2)S(=O)(=O)c2ccc(-n3cnnn3)c(C)c2)cc1 |  | 22.4 µM [rising, partial curve, poor fit] |
| COc1ccc(NC(=O)Cc2ccc(-c3ccccc3)cc2)cn1 |  | 2.82 µM [rising, full curve] |
| CCCCC(=O)Nc1cc(-c2nc3cccnc3s2)ccc1C | 35.5 µM [falling, single point] | 35.5 µM [falling, single point] |
| O=S(=O)(c1ccccc1)c1ccc(NCc2ccco2)cc1 | 14.1 µM [rising, partial curve] | 15.8 µM [rising, single point] |
| O=C1/C(=C/c2ccc(N3CCCC3)cc2)NC(=S)N1C1CC1 | 22.4 µM [rising, single point] |  |
| O=C(NC1CCN(Cc2ccccc2)CC1)C1CCN(c2nnc(-n3cccc3)s2)CC1 |  | 25.1 µM [rising, single point] |
| Cc1cc2c(cc1S(=O)(=O)NCc1ccccc1)OCC(=O)N2 |  | 35.5 µM [rising, single point] |
| CSc1ccc(CN(C)CC(=O)NCc2ccc(F)cc2)cc1 |  | 6.31 µM [falling, single point] |
| CCNc1ncc2nc(-c3cccs3)c(=O)n(CCC#N)c2n1 | 0.316 µM [falling, full curve, poor fit] |  |
| CSc1nsc(SCC(=O)N2CCN(c3ccccc3)CC2)n1 |  | 14.1 µM [rising, single point] |
| CC(C)(C)c1ccc(C(=O)Nc2ccc(C(=O)OCc3cc(=O)n4ccsc4n3)cc2)cc1 | 14.1 µM [falling, single point] | 15.8 µM [falling, single point] |
| CC(C)=CCC/C(C)=C/C=C/C(C)=C/C=C/C(C)=C/C=C/C=C(C)/C=C/C=C(C)/C=C/C=C(\C)CCC=C(C)C | 11.2 µM [rising, partial curve] | 11.2 µM [rising, partial curve] |
| O=C(c1ccco1)N1CCN(Cc2cn[nH]c2-c2ccc(F)cc2F)CC1 |  | 2.51 µM [falling, partial curve, poor fit] |
| O=c1c2sccc2nc(SCc2cc(=O)n3ccccc3n2)n1Cc1ccccn1 |  | 35.5 µM [rising, single point] |

| Structure (SMILES) | AC50 [1] | AC50 [2] |
| --- | --- | --- |
| CC1=C(/C=C/C(C)=C/C=C/C(C)=C/C(=O)O)C(C)(C)CCC1 | 0.0158 µM [falling, single point] |  |
| CCCCCCCCCCC(=O)NNC(=O)c1c(O)c2ccccc2n(CC)c1=O | 0.0398 µM [rising, full curve, poor fit] | 2.82 µM [rising, full curve] |
| CCN(C(=O)CCS(=O)(=O)c1ccc2c(c1)oc(=O)n2C)c1ccc(OC)cc1 | 1.78 µM [falling, full curve, poor fit] | 1.41 µM [falling, full curve] |
| Cc1ccc(OC(C)C(=O)Nc2ccc(C)c(S(=O)(=O)Nc3ccc(C)cc3C)c2)cc1 (configuration not stated) | 15.8 µM [rising, single point] | 31.6 µM [rising, single point] |
| COc1ccc(N2CC(O)=C(c3nc(-c4ccc(Br)cc4)cs3)C2=N)cc1 | 10 µM [falling, partial curve] |  |
| Cc1ccccc1NS(=O)(=O)c1ccc2c(c1)NC(=O)CCS2 | 0.0562 µM [falling, full curve, poor fit] | 0.0316 µM [falling, full curve, poor fit] |
| Cc1cc(C)c(Cc2c(C)nc3c(C(=O)NCc4ccco4)cnn3c2C)c(C)c1 | 2.82 µM [rising, partial curve] | 28.2 µM [falling, single point] |
| O=C(NNC(=S)Nc1ccc(F)c(Cl)c1)c1ccccc1Br | 12.6 µM [rising, single point] | 14.1 µM [rising, single point] |
| S=c1[nH]nc(-c2ccccc2Cl)n1Cc1ccccc1 | 0.01 µM [rising, full curve] |  |
| Fc1ccc(Br)cc1C1C=C(c2ccc(Br)cc2)Nc2ncnn21 (configuration not stated) |  | 2.82 µM [rising, full curve, poor fit] |
| COc1ccc(-c2noc(CCC(=O)NCc3cccnc3)n2)cc1 |  | 15.8 µM [rising, single point] |
| CN[C@H]1[C@H](O)[C@@H](O[C@@H]2[C@H](O)[C@@H](O[C@H]3OC(CN)=CC[C@H]3N)[C@@H](N)C[C@H]2N)OC[C@@]1(C)O | 1 µM [falling, partial curve, poor fit] | 14.1 µM [falling, single point] |
| Cc1ccc(-n2[nH]c(C)c(/C=N/Nc3ccc([N+](=O)[O-])cc3[N+](=O)[O-])c2=O)cc1C |  | 12.6 µM [rising, partial curve, poor fit] |
| CCN1c2ccccc2NC2C1C(C(C)=O)C(=O)N2c1ccc(Cl)cc1 (configuration not stated) | 6.31 µM [falling, single point] | 6.31 µM [falling, single point] |
| CCN(Cc1cnn(C)c1)Cc1nc(C(c2ccccc2)c2ccccc2)no1 | 0.398 µM [rising, partial curve, poor fit] | 22.4 µM [rising, partial curve, poor fit] |
| Cc1nc(C)n(CC(O)COc2ccc(C(=O)c3ccccc3)cc2)n1 (configuration not stated) | 12.6 µM [rising, single point] | 22.4 µM [rising, single point] |
